This series in a line: in vivo. The following applies: rat, intravenous, male Wistar rats weighing 300 g. On the procedure: The LD50 was determined by intravenous administration to male Wistar rats weighing 300 g.

Regarding `COC(=O)C1=C(C)NC(C)=C(C(=O)OC)C1c1ccccc1[N+](=O)[O-]` [nifedipine, dimethyl 1,4-dihydro-2,6-dimethyl-4-(2-nitrophenyl)pyridine-3,5-dicarboxylate, reference compound], the LD50 (usually the dose expected to kill half of the subjects tested) turned out to be 13.2 mg/kg.

Source of the values: patent publication US4710505A, “Asymmetric heterocyclic ester derivatives of 1,4-dihydropyridine-3,5-dicarboxylic acids” (Societe de Recherches Industrielles (S.O.R.I.), priority 1985, dated 1987).
